Values quoted from earlier work, collected in patent US20140235643A1, “NOVEL QUINOXALINE INHIBITORS OF PI3K” (GILEAD CALISTOGA LLC, priority 2011, published 2014).
Like-named read-outs stand apart in the source and are kept apart here. At least one structure is not confirmed: it was looked up by name or label, or the drawing left a doubt.

System: class I PI3Ks
Conditions: cited from earlier work

Compound	IC50 (Fruman, et al. 1998, read-out: IC50 against each of these PI3Ks)	IC50 (read-out: IC50 against each of the various class I PI3Ks)
O=c1cc(N2CCOCC2)oc2c(-c3ccccc3)cccc12 [LY294002]	~1000 nM	–
COC[C@H]1OC(=O)c2coc3c2[C@@]1(C)C1=C(C3=O)[C@@H]2CCC(=O)[C@@]2(C)C[C@H]1OC(C)=O [wortmannin]	–	1 to 10 nM
